# Values of other authors as cited in US11450405B2, “Techniques for modeling parathyroid gland functionality and calcimimetic drug activity” (Fresenius Medical Care Holdings, Inc., priority 2018, dated 2022).
# The name of at least one read-out is uncertain.
# Settings: single oral dose of 75 mg
compound,measurement,value
C[C@@H](NCCCc1cccc(C(F)(F)F)c1)c1cccc2ccccc12 [cinacalcet],target maximum plasma concentration Cmax (known data used to estimate the model),~26.8 ng/mL
